Source: PMC4215536
These are yes or no findings as the source states them, for the method shown. Binding seen in cells or lysates may run through a third protein. These calls come from enrichment with a bait or labelling near it, and not all partners need be listed. Tags and fused reporters may be left off the sequences shown.

Key:
[1] = molecular target: T1, HaloTag fusion of full-length mouse FCHo2 (amino acids 1-809) (M. musculus) (UniProt Q3UQN2); assay: affinity purification with mass spectrometry; HaloTag fusion baits expressed in HEK293T cells; HaloLink magnetic beads; release with AcTEV protease; TCA precipitation; MudPIT; proteins also found in the HaloTag-alone control removed
T1 sequence: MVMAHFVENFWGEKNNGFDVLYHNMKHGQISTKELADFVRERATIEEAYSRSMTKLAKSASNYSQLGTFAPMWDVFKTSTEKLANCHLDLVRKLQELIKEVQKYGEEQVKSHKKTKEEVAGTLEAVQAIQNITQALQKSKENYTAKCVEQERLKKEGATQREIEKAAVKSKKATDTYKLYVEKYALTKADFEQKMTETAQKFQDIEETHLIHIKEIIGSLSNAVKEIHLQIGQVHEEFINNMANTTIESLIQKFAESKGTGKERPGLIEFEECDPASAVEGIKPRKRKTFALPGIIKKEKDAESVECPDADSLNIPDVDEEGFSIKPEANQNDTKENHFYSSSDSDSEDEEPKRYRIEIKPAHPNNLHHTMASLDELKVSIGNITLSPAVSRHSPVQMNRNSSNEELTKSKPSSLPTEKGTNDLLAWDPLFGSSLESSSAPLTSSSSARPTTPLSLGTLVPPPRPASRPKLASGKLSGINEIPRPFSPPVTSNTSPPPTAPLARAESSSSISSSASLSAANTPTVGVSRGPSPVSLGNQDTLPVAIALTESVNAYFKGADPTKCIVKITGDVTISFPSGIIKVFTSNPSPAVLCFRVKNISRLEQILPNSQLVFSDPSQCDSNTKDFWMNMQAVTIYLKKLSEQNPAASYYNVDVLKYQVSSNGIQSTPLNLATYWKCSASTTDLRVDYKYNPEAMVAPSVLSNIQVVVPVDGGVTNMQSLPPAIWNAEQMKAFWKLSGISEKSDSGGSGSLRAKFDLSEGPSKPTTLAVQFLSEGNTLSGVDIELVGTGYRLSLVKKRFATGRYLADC

[2] = molecular target: T2, HaloTag fusion of mouse FCHo2 without the F-BAR domain (amino acids 263-809) (M. musculus) (UniProt Q3UQN2); assay: as above
T2 sequence: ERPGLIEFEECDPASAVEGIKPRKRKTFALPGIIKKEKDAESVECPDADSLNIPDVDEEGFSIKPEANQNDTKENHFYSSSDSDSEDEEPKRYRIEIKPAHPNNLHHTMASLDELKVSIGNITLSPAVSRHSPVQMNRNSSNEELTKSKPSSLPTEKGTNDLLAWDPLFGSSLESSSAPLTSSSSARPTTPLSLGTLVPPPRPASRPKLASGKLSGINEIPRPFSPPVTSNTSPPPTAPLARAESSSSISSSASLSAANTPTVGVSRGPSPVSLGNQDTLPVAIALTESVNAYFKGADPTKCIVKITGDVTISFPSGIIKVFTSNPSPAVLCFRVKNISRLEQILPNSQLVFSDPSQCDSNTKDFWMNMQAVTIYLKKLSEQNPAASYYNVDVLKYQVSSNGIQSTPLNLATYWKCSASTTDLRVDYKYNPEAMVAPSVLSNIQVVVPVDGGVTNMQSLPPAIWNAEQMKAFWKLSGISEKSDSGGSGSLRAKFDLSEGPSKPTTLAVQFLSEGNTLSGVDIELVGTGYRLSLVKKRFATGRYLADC

- binding [1]: binds
- binding [2]: binds
B1: Epidermal growth factor receptor substrate 15 (EPS15), endogenous human (protein, UniProt P42566 1-896)
chain: MAAAAQLSLTQLSSGNPVYEKYYRQVDTGNTGRVLASDAAAFLKKSGLPDLILGKIWDLADTDGKGILNKQEFFVALRLVACAQNGLEVSLSSLNLAVPPPRFHDTSSPLLISGTSAAELPWAVKPEDKAKYDAIFDSLSPVNGFLSGDKVKPVLLNSKLPVDILGRVWELSDIDHDGMLDRDEFAVAMFLVYCALEKEPVPMSLPPALVPPSKRKTWVVSPAEKAKYDEIFLKTDKDMDGFVSGLEVREIFLKTGLPSTLLAHIWSLCDTKDCGKLSKDQFALAFHLISQKLIKGIDPPHVLTPEMIPPSDRASLQKNIIGSSPVADFSAIKELDTLNNEIVDLQREKNNVEQDLKEKEDTIKQRTSEVQDLQDEVQRENTNLQKLQAQKQQVQELLDELDEQKAQLEEQLKEVRKKCAEEAQLISSLKAELTSQESQISTYEEELAKAREELSRLQQETAELEESVESGKAQLEPLQQHLQDSQQEISSMQMKLMEMKDLENHNSQLNWCSSPHSILVNGATDYCSLSTSSSETANLNEHVEGQSNLESEPIHQESPARSSPELLPSGVTDENEVTTAVTEKVCSELDNNRHSKEEDPFNVDSSSLTGPVADTNLDFFQSDPFVGSDPFKDDPFGKIDPFGGDPFKGSDPFASDCFFRQSTDPFATSSTDPFSAANNSSITSVETLKHNDPFAPGGTVVAASDSATDPFASVFGNESFGGGFADFSTLSKVNNEDPFRSATSSSVSNVVITKNVFEETSVKSEDEPPALPPKIGTPTRPCPLPPGKRSINKLDSPDPFKLNDPFQPFPGNDSPKEKDPEIFCDPFTSATTTTNKEADPSNFANFSAYPSEEDMIEWAKRESEREEEQRLARLNQQEQEDLELAIALSKSEISEA
